According to patent US20180305421A1 (SHIRE HUMAN GENETIC THERAPIES, published 2018):
Results are given in words; binding and its absence hold for the method and conditions named. Some entries that bind do so weakly or less than the wild type.

Assays:
Assay in all cases: Biacore SPR
activin = biological target: T1, activin (UniProt P08476 311-426)
T1 sequence (looked up): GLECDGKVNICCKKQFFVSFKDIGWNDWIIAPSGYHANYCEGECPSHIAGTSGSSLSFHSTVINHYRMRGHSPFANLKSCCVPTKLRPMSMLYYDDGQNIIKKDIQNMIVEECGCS

BMP-10 = biological target: T2, BMP-10 (UniProt O95393 317-424)
T2 sequence (looked up): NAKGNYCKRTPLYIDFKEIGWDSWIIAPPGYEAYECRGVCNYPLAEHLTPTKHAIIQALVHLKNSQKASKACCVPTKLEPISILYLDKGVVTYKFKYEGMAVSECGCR

BMP-6 = biological target: T3, BMP-6 (UniProt P22004 382-513, limits assumed)
T3 sequence (looked up): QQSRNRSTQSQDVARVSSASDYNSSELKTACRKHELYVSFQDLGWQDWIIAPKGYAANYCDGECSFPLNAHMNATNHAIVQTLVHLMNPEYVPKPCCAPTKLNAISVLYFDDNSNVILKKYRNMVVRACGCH

BMP-9 = biological target: T4, BMP-9 (UniProt Q9UK05 320-429)
T4 sequence (looked up): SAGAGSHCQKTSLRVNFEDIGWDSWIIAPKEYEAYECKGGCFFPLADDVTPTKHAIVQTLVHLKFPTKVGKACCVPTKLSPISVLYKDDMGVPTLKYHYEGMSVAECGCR

BMP-7 = biological target: T5, BMP-7 (UniProt P18075 293-431)
T5 sequence (looked up): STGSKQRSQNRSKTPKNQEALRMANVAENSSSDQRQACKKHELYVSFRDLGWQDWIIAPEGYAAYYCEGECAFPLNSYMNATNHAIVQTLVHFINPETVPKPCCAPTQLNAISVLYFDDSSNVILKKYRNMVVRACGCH

myostatin = biological target: T6, myostatin (UniProt O14793 267-375)
T6 sequence (looked up): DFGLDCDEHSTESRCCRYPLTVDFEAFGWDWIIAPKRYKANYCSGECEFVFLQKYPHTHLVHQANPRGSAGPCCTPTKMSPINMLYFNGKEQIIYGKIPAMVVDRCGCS

BMP-4 = biological target: T7, BMP-4 (UniProt P12644 293-408)
T7 sequence (looked up): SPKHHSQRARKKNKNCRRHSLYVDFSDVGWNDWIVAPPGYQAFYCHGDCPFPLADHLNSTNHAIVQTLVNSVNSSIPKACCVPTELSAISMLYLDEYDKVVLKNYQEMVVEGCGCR

Binder	binding (activin)	binding (BMP-10)	binding (BMP-6)	binding (BMP-9)	binding (BMP-7)	binding (myostatin)	binding (BMP-4)
FS315 (R&D Systems) (other) GNCWLRQAKNGRCQVLYKTELSKEECCSTGRLSTSWTEEDVNDNTLFKWMIFNGGAPNCIPCKETCENVDCGPGKKCRMNKKNKPRCVCAPDCSNITWKGPVCGLDGKTYRNECALLKARCKEQPELEVQYQGRCKKTCRDVFCPGSSTCVVDQTNNAYCVTCNRICPEPASSEQYLCGNDGVTYSSACHLRKATCLLGRSIGLAYEGKCIKAKSCEDIQCTGGKKCLWDFKVGRGRCSLCDELCPDSKSDEPVCASDNATYASECAMKEAACSSGVLLEVKHSGSCNSISEDTEEEEEDEDQDYSFPISSILEW	binds						
follistatin-Fc human chimera FS315-hFc (Sino Biological Inc. Catalog Number 10685-H02H) (Fc fusion, Bought fusion protein; also called Sino Biological FS315-hFc; not shown: human Fc of the bought product) GNCWLRQAKNGRCQVLYKTELSKEECCSTGRLSTSWTEEDVNDNTLFKWMIFNGGAPNCIPCKETCENVDCGPGKKCRMNKKNKPRCVCAPDCSNITWKGPVCGLDGKTYRNECALLKARCKEQPELEVQYQGRCKKTCRDVFCPGSSTCVVDQTNNAYCVTCNRICPEPASSEQYLCGNDGVTYSSACHLRKATCLLGRSIGLAYEGKCIKAKSCEDIQCTGGKKCLWDFKVGRGRCSLCDELCPDSKSDEPVCASDNATYASECAMKEAACSSGVLLEVKHSGSCNSISEDTEEEEEDEDQDYSFPISSILEWALEVLFQGP	binds						
sActRIIB-hFc (Fc fusion, UniProt Q13705 25-134, looked up, Control protein in the Biacore assay; also called sActRTIB-hFc; sActRIIB-Fc; not shown: human Fc) ETRECIYYNANWELERTNQSGLERCEGEQDKRLHCYASWRNSSGTIELVKKGCWLDDFNCYDRQECVATEENPQVYFCCCEGNFCNERFTHLPEAGGPEVTYEPPPTAPT		binds	binds	binds	binds	binds	binds
